Assay results published in PubChem BioAssay AID504847 (National Center for Advancing Translational Sciences (NCATS), 2011).
About 3,700 (0.93%) of roughly 400,000 compounds were called active. Inconclusive results, whose numbers are uncertain, are shown with a selection of clear calls. Calls follow the shape of the dose curve; as a rule, active = well fitted inhibition curve with a large enough effect; inconclusive = small, poorly fitted or top-dose-only effect, or another doubt; inactive = no such curve, though single readings can be large or run the other way. Potencies of inconclusive entries are doubtful fits and often do not repeat.

Sequences of proteins named here, by UniProt entry; tags and fusion partners are left off. A change or cut given only in a name is not applied to a line headed by its entry.
UniProt P11473: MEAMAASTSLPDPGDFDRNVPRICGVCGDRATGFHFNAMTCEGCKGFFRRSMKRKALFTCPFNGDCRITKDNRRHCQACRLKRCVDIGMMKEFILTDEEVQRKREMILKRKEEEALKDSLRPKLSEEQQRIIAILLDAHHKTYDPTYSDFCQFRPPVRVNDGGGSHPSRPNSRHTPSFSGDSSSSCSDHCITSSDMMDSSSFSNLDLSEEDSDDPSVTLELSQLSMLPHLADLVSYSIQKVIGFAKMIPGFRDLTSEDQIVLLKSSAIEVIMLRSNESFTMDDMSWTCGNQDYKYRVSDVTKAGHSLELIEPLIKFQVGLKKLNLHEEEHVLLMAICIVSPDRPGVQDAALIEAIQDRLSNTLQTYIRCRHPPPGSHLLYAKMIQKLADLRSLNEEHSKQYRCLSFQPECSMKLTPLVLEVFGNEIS

target: Vitamin D3 receptor (Homo sapiens) (UniProt P11473); experiment: Inhibitors of the vitamin D receptor (VDR): qHTS; conditions: VDR-SRC2-3 peptide fluorescence polarization, 2 h; max response, negative = inhibition: stronger effect = lower value
In short: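 Two reagent solutions held at 4 deg C in the dark were dispensed, compounds pinned at 23 nl, and the mixture incubated 2 h at room temperature. Read-out: fluorescence polarization of VDR–SRC2-3 peptide binding.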
% is scaled to controls: 0 for no effect and ±100 for the full control effect; potency is read from the fitted curve at half-maximal effect.

Potency, inconclusive:
NC(=O)c1c(NC(=O)CN2CCCC2)sc2c1CCCC2 20 µM [inhibitor, partial curve]
Oc1c(Br)cc(Br)c(/C=N/n2c(-c3ccccc3)n[nH]c2=S)c1Br 35.5 µM [inhibitor, partial curve, poor fit]
CCOc1ccc(-n2c(N)c(C(=O)NCc3ccco3)sc2=S)cc1 89.1 µM [inhibitor, partial curve, poor fit]
Cn1sc(=O)c2cc(S(=O)(=O)NC3CC3)ccc21 39.8 µM [inhibitor, partial curve, poor fit]
Cc1onc(-c2ccccc2)c1C(=O)OCCOc1ccccc1F 50.1 µM [inhibitor, partial curve, poor fit]
Cc1ccc(S(=O)(=O)N2CCC(C(=O)NN3CCCCC3)CC2)cc1 89.1 µM [inhibitor, partial curve, poor fit]
Cc1ccc(/C=N/n2c(C)nnc2C)o1 35.5 µM [inhibitor, partial curve, poor fit]
O=C(CCCCC(=O)Nc1ccccc1Cl)Nc1ccccc1Cl 100 µM [inhibitor, partial curve, poor fit]
O=C(O)C1Nc2c(Cl)cc(Cl)cc2C2C=CCC12 (stereo not drawn) 50.1 µM [inhibitor, partial curve, poor fit]
CCOC(=O)C1Nc2ccc(OC(F)(F)F)cc2C2C=CCC12 (stereo not drawn) 63.1 µM [inhibitor, partial curve, poor fit]
O=C(NCC1CCCO1)c1ccc(NC(=O)c2cccc(Cl)c2)cc1 (stereo not drawn) 70.8 µM [inhibitor, partial curve, poor fit]
COc1ccccc1NC(=O)CCC(=O)c1ccc(-c2ccccc2)cc1 50.1 µM [inhibitor, partial curve, poor fit]
CNC(=O)c1c(C)[nH]c(=S)c(C#N)c1-c1ccco1 50.1 µM [inhibitor, partial curve, poor fit]
CC1CCC2(CC1)NC(=S)N(C(C)(C)C)N2 (stereo not drawn) 79.4 µM [inhibitor, single point]
O=C(CN1C(=O)S/C(=C\C=C\c2ccccc2)C1=O)NC1CCS(=O)(=O)C1 (stereo not drawn) 79.4 µM [inhibitor, partial curve, poor fit]
COc1cc(Cl)c(C)cc1NC(=O)c1cc2c(=O)oc3ccccc3c2s1 63.1 µM [inhibitor, partial curve, poor fit]
O=C1c2cccc3cccc(c23)C(=O)N1CCCCCc1n[nH]c(=S)o1 100 µM [inhibitor, single point]
COc1ccc(CN2C(=O)c3c(c(C)n(C)c3C)C2C(=O)NC2CCC(C)CC2)cc1 (stereo not drawn) 89.1 µM [inhibitor, single point]
O=C(NCCCN1CCCC1=O)Nc1ccccc1Cl 89.1 µM [inhibitor, single point]
C/C(N)=C(/C#N)C(=O)COC(=O)c1ccccc1Oc1ccccc1 100 µM [inhibitor, single point]
Oc1ccc(C(=S)N2CCCC2)cc1 89.1 µM [inhibitor, partial curve, poor fit]
O=C1Nc2ccccc2/C1=C/c1ccccc1Cl 89.1 µM [inhibitor, single point]
CN(C)CCOC(=O)C1(c2ccccc2)CCOCC1 79.4 µM [inhibitor, partial curve]
COc1ccc(C(=O)N2CCC(C(=O)Nc3ccc(C)cc3)CC2)cc1 28.2 µM [inhibitor, partial curve, poor fit]
NNS(=O)(=O)c1ccc(N2CCCC2=O)c([N+](=O)[O-])c1 89.1 µM [inhibitor, single point]
COc1ccc(NC(=O)Cn2c(=O)c3ccccc3n3nncc23)cc1Cl 79.4 µM [inhibitor, single point]
N#CC1(Nc2cccc(Br)c2)C(=O)Nc2ccccc21 (stereo not drawn) 35.5 µM [inhibitor, partial curve]
COc1ccc(C=C2SC(=S)NC2=O)cc1 89.1 µM [inhibitor, single point]
CC1CCc2c(sc(NS(=O)(=O)c3ccccc3)c2C(=O)OC(C)C)C1 (stereo not drawn) 89.1 µM [inhibitor, single point]
COc1cccc(C(=O)O/N=C(\N)c2ccccn2)c1OC 89.1 µM [inhibitor, single point]
COc1cc(/C=C(\C#N)C(=O)c2ccc(O)c(O)c2)cc(I)c1O 44.7 µM [inhibitor, partial curve]
COc1cc(Br)cc(/C=N/NC(=O)Cc2ccc(C(F)(F)F)cc2[N+](=O)[O-])c1O 89.1 µM [inhibitor, single point]
Cc1ccccc1NCC(=O)c1ccc(Br)cc1 70.8 µM [inhibitor, single point]
CC(C(=O)N1CCCCC1)N(C)CC(=O)Nc1ccc(Cl)cc1 (stereo not drawn) 35.5 µM [inhibitor, single point]
Cc1occc1-c1nnc(SCC(=O)c2ccc(Cl)cc2)n1C 79.4 µM [inhibitor, partial curve, poor fit]
O=C(CN1CCN(Cc2ccc(F)cc2)CC1)NCCc1ccccc1 79.4 µM [inhibitor, single point]

Of the compounds above, these contain a nitro group on carbon:
Potency, inconclusive:
NNS(=O)(=O)c1ccc(N2CCCC2=O)c([N+](=O)[O-])c1 89.1 µM [inhibitor, single point]
COc1cc(Br)cc(/C=N/NC(=O)Cc2ccc(C(F)(F)F)cc2[N+](=O)[O-])c1O 89.1 µM [inhibitor, single point]

Next part.

Potency, active:
O=C(OCC(=O)N1N=C(c2ccc(Cl)cc2)CC1c1ccco1)c1cncc(Br)c1 (stereo not drawn) 70.8 µM
CCC(CO)Oc1cc(NCc2cccc(C)c2)c2ncn(C(C)C)c2c1 (stereo not drawn) 89.1 µM
COc1ccc(C(C[N+](=O)[O-])c2c(-c3ccccc3)cc3ccccn23)c(OC)c1 (stereo not drawn) 70.8 µM
N#CC1=C(N)C(C#N)(C#N)C(c2cccnc2)C2CN(C(=O)OCc3ccccc3)CC=C12 (stereo not drawn) 20 µM
O=c1c(O)c(Br)ccc2c(Br)c(O)c(O)c(O)c12 7.94 µM
COc1cccc(/C=C2\C(=O)C(=O)c3ccccc32)c1 89.1 µM
CCN(CC)S(=O)(=O)c1ccc(OCCNS(C)(=O)=O)cc1 28.2 µM
O=C(O)c1ccc2c(c1)C(=O)N(c1ccc(/C=C/C(=O)c3ccccc3)cc1)C2=O 20 µM
CSC1=NSC2=NC(=O)/C(=C/c3coc4ccccc4c3=O)C(=N)N12 50.1 µM
O=C(O)CN1C(=O)/C(=C\c2cc(Br)ccc2OCc2ccc(Cl)cc2Cl)SC1=S 44.7 µM

Max response, negative = inhibition, inactive:
CC(=O)N1CCC(N(CCN2CCOCC2)C(=S)Nc2ccccc2C)CC1 -27.1%
O=C(Cn1nc(N2CCN(c3ccccc3)CC2)ccc1=O)NCc1ccccc1F 12.3%
Oc1ccc(-c2ccccc2)cc1CN1CCCCCC1 -3.17%
Brc1ccc(-c2ccccc2)cc1 -1.09%
COc1ccc(Br)cc1/C=C/C(=O)Nc1ccc2ccccc2c1 -3.8%
Cc1c(Cl)cccc1NC(=S)Nc1ccccn1 -8.61%
CCOC(=O)c1cc(C)n(CC2CCC(C(=O)Nc3ccc(OC)c(OC)c3)CC2)c1C (stereo not drawn) 6.57%
CCCOc1ccccc1/C=C(\C#N)C(=O)Nc1cccnc1 -16.8%
COC(=O)c1ccc(C(C(=O)NC2CCCCC2)N(C(=O)Cc2cccs2)C2CC2)cc1 (stereo not drawn) 7.7%
CC(C)Oc1ccc(C(=O)Nc2ccc3c(c2)n(C)c(=O)n3C)cc1 -6.84%
CCN1C(=O)S/C(=C\c2ccc(N3CCOCC3)cc2C)C1=O 2.47%
CC1(c2ccccc2)NC(=O)N(CC(=O)NNC(=O)c2cccc(Cl)c2)C1=O (stereo not drawn) -7.08%
CO/N=C(\c1nonc1N)N1CCN(c2ccc(Cl)cc2[N+](=O)[O-])CC1 -1.98%
C[C@]12O[C@H](C[C@]1(O)CO)n1c3ccccc3c3c4c(c5c6ccccc6n2c5c31)CNC4=O -7.3%
Cc1ccc(-c2cc(C(=O)O)c3ccccc3n2)s1 20.8%
COc1ccc(N2CCN(C(=O)CCC(=O)N3CCOc4ccc(C)cc43)CC2)cc1 3.63%
O=C(CN1CCCCC1)Nc1ccc(N2CCCCCC2)cc1 -10.8%
Cc1ccccc1/C=C1\CCCc2ccccc2C1=O 24.1%
Cc1ccc(-n2nc(CO)c(C(=O)NCCC(C)C)n2)cc1C -11.9%
Nc1nc(CN2CCCCCC2)nc(Nc2ccc(F)cc2)n1 4.58%
COc1ccc2[nH]c(O)c(N=NC(=O)c3ccc(NS(=O)(=O)c4cccs4)cc3)c2c1 9.55%
CS(=O)(=O)CC[C@@H](C(=O)NCCc1ccccc1)N1Cc2ccccc2C1=O -7.44%
Cc1nn2c(=O)cc(COC(=O)c3ccc(NC(=O)c4ccc(C(C)(C)C)cc4)cc3)nc2s1 0.861%
O=C(O)CSc1ccccc1C(=O)O 7.81%
COc1ccc(NS(=O)(=O)c2ccc3c(c2)n(C)c(=O)c(=O)n3C)cc1Cl 11.4%
CCCCOc1ccc(/C=N/NC(=S)Nc2cccc(C)c2C)cc1 4.37%
Cn1cnc(S(=O)(=O)NC2CCN(Cc3c(F)cccc3Cl)CC2)c1 -15%
